In paper PMC7334785 one finds binding data, which are given here for 3 molecules.

Protein sequences, listed by entry. Tags and fused reporters are not part of them.
UniProt P46940: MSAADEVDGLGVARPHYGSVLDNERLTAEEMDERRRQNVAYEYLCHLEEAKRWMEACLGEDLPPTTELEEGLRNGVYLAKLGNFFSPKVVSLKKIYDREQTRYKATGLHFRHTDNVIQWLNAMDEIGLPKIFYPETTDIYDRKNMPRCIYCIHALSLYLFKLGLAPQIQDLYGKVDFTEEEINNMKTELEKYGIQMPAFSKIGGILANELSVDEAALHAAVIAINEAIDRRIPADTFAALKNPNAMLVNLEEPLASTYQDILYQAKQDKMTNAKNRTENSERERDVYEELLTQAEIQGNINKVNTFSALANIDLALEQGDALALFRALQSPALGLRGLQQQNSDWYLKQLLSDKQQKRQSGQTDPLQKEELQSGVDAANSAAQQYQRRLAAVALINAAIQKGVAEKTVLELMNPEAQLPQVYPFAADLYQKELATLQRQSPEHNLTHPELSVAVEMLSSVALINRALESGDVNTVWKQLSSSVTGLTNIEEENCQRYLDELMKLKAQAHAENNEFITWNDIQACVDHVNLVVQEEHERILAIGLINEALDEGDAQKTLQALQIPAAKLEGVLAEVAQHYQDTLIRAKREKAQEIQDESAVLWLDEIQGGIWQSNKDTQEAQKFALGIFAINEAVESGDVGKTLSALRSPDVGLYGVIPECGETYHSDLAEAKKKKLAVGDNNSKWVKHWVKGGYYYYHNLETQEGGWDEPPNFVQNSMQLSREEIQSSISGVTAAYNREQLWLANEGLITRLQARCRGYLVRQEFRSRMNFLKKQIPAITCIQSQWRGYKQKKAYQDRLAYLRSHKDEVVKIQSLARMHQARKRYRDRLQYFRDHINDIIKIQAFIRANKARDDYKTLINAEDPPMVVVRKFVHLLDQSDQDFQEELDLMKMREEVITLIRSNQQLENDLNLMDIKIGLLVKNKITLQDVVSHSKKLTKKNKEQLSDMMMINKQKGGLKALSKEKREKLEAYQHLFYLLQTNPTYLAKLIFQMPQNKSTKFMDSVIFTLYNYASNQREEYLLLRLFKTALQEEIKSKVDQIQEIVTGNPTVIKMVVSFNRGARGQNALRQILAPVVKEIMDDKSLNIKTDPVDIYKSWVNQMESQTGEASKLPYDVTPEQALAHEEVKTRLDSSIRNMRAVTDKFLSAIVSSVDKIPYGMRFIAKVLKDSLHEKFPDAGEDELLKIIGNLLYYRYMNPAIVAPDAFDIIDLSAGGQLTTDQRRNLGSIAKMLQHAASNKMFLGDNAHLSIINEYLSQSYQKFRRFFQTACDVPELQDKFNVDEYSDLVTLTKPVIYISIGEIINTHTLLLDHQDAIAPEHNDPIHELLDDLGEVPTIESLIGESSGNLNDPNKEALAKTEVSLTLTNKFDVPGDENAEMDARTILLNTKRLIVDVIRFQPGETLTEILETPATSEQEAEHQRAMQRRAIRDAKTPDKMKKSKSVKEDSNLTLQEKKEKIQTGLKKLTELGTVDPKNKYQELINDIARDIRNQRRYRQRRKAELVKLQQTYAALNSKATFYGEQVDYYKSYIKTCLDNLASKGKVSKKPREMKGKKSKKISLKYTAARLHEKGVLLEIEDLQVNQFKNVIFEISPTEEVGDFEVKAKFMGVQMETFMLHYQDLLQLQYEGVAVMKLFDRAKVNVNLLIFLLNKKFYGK

Results are given in words; binding and its absence hold for the method and conditions named. For part of these data: Binding seen in cells or lysates may run through a third protein. Some entries that bind do so weakly or less than the wild type. For part of these data: Tags and fused reporters may be left off the sequences shown.

Test [1] deals with T1, Borealin (human (endogenous in HeLa)) (UniProt Q53HL2).
T1 sequence: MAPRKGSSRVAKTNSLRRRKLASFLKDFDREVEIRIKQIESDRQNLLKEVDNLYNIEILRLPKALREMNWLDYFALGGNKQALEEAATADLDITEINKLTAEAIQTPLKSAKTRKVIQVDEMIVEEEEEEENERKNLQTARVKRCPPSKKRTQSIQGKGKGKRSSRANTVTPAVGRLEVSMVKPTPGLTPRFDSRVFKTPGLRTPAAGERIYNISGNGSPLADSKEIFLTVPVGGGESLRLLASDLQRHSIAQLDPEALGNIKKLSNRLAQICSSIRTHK
The test can be described thus: co-IP; endogenous proteins of HeLa lysate (BC100 buffer) precipitated with anti-Borealin or anti-IQGAP1 antibody and protein A/G beads, 4°C; western blot.

The next test has as its target GST-IQGAP1 (human) (UniProt P46940). The test can be described thus: pull-down; GST-IQGAP or GST immobilised on Glutathione Sepharose 4B, incubated with recombinant His-Borealin 3 h at 4°C; 25 mM Tris-HCl pH 7.5, 10% glycerol, 0.1% NP-40, 150 mM NaCl, 1 mM EDTA, 1 mM DTT; Coomassie and western blot with anti-His; both purified.
Test [2] has as its target IQ domain-containing GTPase-activating protein 1 (human (endogenous in HeLa)) (UniProt P46940). The test is described as follows: co-IP; endogenous proteins of HeLa lysate (BC100 buffer) precipitated with anti-Borealin or anti-IQGAP1 antibody and protein A/G beads, 4°C; western blot.

Consider “IQ domain-containing GTPase-activating protein 1 (from UniProt P46940 1-1657)”, for which, in test [1], the binding entry is given as “binds”.

B1: His-Borealin (protein, UniProt Q53HL2 1-280)
chain: MAPRKGSSRVAKTNSLRRRKLASFLKDFDREVEIRIKQIESDRQNLLKEVDNLYNIEILRLPKALREMNWLDYFALGGNKQALEEAATADLDITEINKLTAEAIQTPLKSAKTRKVIQVDEMIVEEEEEEENERKNLQTARVKRCPPSKKRTQSIQGKGKGKRSSRANTVTPAVGRLEVSMVKPTPGLTPRFDSRVFKTPGLRTPAAGERIYNISGNGSPLADSKEIFLTVPVGGGESLRLLASDLQRHSIAQLDPEALGNIKKLSNRLAQICSSIRTHK
Regarding B1, the binding entry in the test with GST-IQGAP1 (human) is given as “binds”.

B2: Borealin (protein, UniProt Q53HL2 1-280)
chain: MAPRKGSSRVAKTNSLRRRKLASFLKDFDREVEIRIKQIESDRQNLLKEVDNLYNIEILRLPKALREMNWLDYFALGGNKQALEEAATADLDITEINKLTAEAIQTPLKSAKTRKVIQVDEMIVEEEEEEENERKNLQTARVKRCPPSKKRTQSIQGKGKGKRSSRANTVTPAVGRLEVSMVKPTPGLTPRFDSRVFKTPGLRTPAAGERIYNISGNGSPLADSKEIFLTVPVGGGESLRLLASDLQRHSIAQLDPEALGNIKKLSNRLAQICSSIRTHK
For B2, the binding entry in test [2] is “binds”.
